The record followed here is PMC12439145.

By UniProt entry, the sequences of proteins in these tests, tags left out. Chains listed by the source or under a name are the forms on record and can include a tag or linker. Residues count along the entry.
UniProt P10721, 26-976: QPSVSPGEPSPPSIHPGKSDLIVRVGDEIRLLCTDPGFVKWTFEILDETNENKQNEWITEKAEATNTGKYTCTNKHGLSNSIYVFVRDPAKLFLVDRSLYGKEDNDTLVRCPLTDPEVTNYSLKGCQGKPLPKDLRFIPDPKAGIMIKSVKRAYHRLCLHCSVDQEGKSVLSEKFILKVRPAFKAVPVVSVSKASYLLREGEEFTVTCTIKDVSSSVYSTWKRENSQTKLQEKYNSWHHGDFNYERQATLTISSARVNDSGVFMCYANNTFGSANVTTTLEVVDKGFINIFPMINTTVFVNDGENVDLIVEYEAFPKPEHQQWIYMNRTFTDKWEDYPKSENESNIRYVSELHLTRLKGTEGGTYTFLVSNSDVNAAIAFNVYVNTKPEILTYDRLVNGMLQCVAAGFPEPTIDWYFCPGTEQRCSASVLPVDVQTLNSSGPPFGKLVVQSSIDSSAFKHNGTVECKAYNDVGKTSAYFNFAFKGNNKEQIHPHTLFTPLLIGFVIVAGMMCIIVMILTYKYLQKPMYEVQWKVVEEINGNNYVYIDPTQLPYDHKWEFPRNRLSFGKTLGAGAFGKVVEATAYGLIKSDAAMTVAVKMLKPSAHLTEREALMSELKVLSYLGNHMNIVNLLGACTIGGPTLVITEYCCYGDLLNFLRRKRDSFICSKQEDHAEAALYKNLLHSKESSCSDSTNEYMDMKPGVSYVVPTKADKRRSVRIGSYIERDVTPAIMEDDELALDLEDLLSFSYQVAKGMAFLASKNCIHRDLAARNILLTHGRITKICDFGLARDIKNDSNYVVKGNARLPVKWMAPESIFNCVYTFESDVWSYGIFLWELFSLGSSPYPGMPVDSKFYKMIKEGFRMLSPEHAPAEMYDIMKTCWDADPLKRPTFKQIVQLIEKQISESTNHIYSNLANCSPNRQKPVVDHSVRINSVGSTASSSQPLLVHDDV
UniProt P05532, other isoform, or with tags, fused parts or gaps, stated change not applied: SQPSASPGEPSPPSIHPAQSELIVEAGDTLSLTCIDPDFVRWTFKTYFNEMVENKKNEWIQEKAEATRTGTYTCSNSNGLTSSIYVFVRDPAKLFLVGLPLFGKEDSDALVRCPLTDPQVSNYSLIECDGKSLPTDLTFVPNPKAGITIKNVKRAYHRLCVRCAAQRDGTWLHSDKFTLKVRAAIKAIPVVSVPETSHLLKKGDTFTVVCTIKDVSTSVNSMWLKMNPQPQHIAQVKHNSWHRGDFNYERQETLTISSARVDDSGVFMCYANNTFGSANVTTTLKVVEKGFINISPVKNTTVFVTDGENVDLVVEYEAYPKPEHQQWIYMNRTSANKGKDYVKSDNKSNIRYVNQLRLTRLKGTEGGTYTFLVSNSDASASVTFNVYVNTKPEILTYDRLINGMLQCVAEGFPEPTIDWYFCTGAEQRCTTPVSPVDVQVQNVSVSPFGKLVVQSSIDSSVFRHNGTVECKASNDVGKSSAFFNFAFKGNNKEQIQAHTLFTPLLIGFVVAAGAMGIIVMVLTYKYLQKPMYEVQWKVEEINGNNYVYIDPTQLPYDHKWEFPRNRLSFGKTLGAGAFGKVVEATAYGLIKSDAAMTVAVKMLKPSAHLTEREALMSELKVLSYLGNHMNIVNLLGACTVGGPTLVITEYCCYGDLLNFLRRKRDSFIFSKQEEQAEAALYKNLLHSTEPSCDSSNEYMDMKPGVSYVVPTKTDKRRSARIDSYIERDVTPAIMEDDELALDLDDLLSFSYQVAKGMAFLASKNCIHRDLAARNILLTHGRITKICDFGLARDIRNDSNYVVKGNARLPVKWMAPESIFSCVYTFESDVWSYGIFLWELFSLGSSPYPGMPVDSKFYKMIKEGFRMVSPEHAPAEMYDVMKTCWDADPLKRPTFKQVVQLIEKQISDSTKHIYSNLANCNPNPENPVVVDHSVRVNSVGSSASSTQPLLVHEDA

Construct, isoform or probe ends are uncertain for at least one entry. At least one result comes from cells or an extract, where the contact may be indirect. For some of these results: Negatives hold for the conditions tested. For some of these results: At least one verdict was read from the data and is not stated in words by the source. For some of these results: The comparison behind a weaker result is the experiment's own reference, which may not be listed here.

Series [1] deals with KIT on GIST-430/654 cells (human (GIST-430/654)) (UniProt P10721). Description: flow cytometry. The conditions noted are these: protein on the cell surface, single-stranded DNA. Background: In flow cytometry, cells or beads pass a laser one at a time.
For series [2], the target named is KIT on GIST-CN16 cells (human (GIST-CN16, patient-derived xenograft)) (UniProt P10721). Kind of series: flow cytometry. The conditions noted are these: protein on the cell surface, single-stranded DNA.
In series [3] the target is KIT on GIST-T1 cells (human (GIST-T1)) (UniProt P10721). Kind of series: flow cytometry. The settings on record: protein on the cell surface, single-stranded DNA.
For series [4], the target named is murine Kit V558del on KitV558del/+ tumor cells del562-562 (mouse (KitV558del/+)) (UniProt P05532). Description: flow cytometry. The settings on record: dissociated tumor cells; protein on the cell surface; label: Cy5 in flow cytometry; single-stranded DNA.
Series [5] addresses KIT on GIST-430/654 cells (human (GIST-430/654)) (UniProt P10721). Kind of series: competition with a labelled probe. The settings on record: pretreated with anti-KIT antibody (epitope aa 350-440); protein on the cell surface; label: Cy5 in flow cytometry; single-stranded DNA.
Series [6] concerns the target KIT on GIST-T1 cells (human (GIST-T1)) (UniProt P10721). Description: competition with a labelled probe. The settings on record: pretreated with anti-KIT antibody (epitope aa 350-440); protein on the cell surface; label: Cy5 in flow cytometry; single-stranded DNA.
For series [7], the target named is KIT on GIST-430 cells (human (GIST-430)) (UniProt P10721). Kind of series: flow cytometry. The settings on record: 250 nM aptamer, protein on the cell surface, label: Cy5 in flow cytometry, single-stranded DNA.
[8] abbreviates: mc-vc-PAB-MMAE drug conjugate, attachment position not stated in material, label: Cy5.
Where [9] appears, read: 250 nM aptamer, label: Cy5 in flow cytometry.
Setting [10] is: 250 nM aptamer, lost affinity, label: Cy5 in flow cytometry.

“ATTCAAGGGGCCGGGGCAAGGGGGGGGTACCGTGGTAGGACATAGT [KIT-d-MMAE]”: the binding result in series [1] (setting [8]), in series [2] (setting [8]) and in series [3] (setting [8]) was “binds” in each case.
As for “ATTCAAGGGGCCGGGGCAAGGGGGGGGTACCGTGGTAGGACATAGT [KIT-d]”, the binding result is on record as “binds” in series [2] (label: Cy5 in flow cytometry), “binds” in series [4], “binds more weakly” in series [5] and “binds more weakly” in series [6].
Consider “GAGGCATACCAGCTTATTCAAGGGGCCGGGGCAAGGGGGGGGTACCGTGGTAGGAC [KIT-a]”, for which the binding result in series [7], in series [1] (setting [9]) and in series [3] (setting [9]) was “binds more weakly” throughout.
In the case of “GAGGCATACCAGCTTATTCAAGGGGCCGGGGCAAGGGGGGGGTACCGTGGTAGGACATAGTAAGTGCAATCTGCGAA [KIT-w]”, the binding result in series [7], in series [1] (setting [9]) and in series [3] (setting [9]) was “binds” in each case.
Consider “GAGGCATACCAGCTTATTCAATACCGTGGTAGGACATAGTAAGTGCAATCTGCGAA [KIT-c]”, for which the binding result in series [7] (lost affinity), in series [1] (setting [10]) and in series [3] (setting [10]) was “no binding” in each case.
With “GGGGCCGGGGCAAGGGGGGGGTACCGTGGTAGGACATAGTAAGTGCAATCTGCGAA [KIT-b]”, the binding result in series [7], in series [1] (setting [9]) and in series [3] (setting [9]) was “binds more weakly” throughout.
